Among the data in article doi:10.1101/398669 are binding values, retold here.

By UniProt entry, the sequences of proteins in these tests, tags left out.
UniProt P60468: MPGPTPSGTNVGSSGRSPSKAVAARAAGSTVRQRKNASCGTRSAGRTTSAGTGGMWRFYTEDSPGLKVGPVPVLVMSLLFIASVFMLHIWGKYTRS
UniProt Q07065: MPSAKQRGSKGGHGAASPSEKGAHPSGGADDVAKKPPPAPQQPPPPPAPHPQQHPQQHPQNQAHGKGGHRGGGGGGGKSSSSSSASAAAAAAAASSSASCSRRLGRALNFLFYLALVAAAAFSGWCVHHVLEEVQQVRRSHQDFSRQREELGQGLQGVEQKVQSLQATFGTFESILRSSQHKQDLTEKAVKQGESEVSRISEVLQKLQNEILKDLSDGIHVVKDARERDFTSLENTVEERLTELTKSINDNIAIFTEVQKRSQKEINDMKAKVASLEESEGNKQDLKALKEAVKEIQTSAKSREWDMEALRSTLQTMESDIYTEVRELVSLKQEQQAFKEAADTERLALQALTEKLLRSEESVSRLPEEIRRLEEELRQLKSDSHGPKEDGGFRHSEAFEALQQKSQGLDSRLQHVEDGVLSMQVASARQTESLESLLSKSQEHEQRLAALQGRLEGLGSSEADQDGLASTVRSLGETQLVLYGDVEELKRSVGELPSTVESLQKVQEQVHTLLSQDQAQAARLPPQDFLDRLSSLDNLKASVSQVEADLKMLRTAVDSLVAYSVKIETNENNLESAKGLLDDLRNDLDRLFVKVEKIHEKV
UniProt Q14573: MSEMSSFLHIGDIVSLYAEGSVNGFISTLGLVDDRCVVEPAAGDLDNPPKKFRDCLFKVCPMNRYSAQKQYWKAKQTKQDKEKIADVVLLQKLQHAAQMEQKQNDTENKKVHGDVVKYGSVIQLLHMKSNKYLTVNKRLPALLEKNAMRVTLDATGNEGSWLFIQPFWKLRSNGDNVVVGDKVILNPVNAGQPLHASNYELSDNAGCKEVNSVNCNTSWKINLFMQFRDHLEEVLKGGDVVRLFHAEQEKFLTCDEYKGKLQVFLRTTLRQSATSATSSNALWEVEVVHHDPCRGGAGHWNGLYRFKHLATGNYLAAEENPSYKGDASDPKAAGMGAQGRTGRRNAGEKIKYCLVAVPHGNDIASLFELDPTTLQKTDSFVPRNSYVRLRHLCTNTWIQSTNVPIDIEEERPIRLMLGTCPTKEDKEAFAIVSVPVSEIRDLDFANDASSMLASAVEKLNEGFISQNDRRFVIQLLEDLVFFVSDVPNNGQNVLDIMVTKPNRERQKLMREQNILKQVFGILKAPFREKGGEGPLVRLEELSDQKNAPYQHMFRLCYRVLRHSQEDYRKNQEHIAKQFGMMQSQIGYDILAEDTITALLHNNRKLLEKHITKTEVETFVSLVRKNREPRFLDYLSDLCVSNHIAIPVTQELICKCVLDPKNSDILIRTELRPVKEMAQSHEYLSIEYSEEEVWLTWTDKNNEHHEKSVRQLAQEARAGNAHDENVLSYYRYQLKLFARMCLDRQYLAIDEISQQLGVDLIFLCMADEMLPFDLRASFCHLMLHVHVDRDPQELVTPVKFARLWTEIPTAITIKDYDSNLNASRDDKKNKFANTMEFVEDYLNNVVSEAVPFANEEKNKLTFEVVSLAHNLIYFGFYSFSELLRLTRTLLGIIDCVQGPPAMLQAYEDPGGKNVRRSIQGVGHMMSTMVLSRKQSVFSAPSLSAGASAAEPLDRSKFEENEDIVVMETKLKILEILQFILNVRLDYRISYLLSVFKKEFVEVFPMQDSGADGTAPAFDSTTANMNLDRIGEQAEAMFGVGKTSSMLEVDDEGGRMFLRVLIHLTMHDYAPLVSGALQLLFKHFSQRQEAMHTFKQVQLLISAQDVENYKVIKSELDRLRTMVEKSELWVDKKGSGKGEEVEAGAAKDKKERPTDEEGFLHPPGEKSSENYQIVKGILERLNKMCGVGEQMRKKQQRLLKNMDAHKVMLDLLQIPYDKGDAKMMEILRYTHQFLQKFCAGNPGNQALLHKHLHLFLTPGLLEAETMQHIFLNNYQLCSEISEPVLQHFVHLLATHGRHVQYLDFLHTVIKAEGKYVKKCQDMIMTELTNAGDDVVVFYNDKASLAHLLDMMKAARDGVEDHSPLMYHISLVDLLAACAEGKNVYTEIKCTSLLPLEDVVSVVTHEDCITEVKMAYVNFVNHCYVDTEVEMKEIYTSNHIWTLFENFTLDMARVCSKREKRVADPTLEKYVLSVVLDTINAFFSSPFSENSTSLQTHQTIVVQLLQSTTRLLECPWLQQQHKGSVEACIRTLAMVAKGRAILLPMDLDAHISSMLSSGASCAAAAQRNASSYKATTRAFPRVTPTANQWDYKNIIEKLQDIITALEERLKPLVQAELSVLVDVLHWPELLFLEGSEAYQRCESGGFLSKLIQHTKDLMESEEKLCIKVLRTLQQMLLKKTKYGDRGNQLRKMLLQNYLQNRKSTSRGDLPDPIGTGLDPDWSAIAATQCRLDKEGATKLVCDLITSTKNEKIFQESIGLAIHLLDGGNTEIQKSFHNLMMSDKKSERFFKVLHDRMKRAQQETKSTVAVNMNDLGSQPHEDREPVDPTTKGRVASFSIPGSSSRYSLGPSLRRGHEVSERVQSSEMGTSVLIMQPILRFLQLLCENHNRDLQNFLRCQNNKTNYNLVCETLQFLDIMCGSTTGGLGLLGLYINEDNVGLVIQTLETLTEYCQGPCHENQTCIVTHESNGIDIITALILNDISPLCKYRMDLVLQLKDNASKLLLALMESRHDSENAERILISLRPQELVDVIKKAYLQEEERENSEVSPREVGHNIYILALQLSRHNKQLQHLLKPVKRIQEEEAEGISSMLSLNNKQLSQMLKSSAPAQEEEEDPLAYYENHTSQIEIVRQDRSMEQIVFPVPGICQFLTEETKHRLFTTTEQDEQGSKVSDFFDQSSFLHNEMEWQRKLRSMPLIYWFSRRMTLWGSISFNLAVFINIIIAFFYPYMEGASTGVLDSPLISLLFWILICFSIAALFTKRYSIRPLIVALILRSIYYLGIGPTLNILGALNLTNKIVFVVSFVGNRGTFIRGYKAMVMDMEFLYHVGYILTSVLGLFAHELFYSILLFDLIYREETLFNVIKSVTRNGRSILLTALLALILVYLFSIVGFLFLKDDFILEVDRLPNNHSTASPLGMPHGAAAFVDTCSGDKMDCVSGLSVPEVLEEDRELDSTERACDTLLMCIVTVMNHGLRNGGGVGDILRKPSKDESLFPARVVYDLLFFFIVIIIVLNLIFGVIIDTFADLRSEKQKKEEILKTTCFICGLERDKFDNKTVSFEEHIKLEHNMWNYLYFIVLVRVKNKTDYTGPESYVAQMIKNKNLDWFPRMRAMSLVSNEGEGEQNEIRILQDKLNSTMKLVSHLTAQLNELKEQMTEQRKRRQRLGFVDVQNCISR
UniProt P05387: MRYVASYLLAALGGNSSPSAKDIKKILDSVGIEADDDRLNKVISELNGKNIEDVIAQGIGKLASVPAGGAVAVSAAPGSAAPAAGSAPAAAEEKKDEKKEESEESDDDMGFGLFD
UniProt Q9UGP8: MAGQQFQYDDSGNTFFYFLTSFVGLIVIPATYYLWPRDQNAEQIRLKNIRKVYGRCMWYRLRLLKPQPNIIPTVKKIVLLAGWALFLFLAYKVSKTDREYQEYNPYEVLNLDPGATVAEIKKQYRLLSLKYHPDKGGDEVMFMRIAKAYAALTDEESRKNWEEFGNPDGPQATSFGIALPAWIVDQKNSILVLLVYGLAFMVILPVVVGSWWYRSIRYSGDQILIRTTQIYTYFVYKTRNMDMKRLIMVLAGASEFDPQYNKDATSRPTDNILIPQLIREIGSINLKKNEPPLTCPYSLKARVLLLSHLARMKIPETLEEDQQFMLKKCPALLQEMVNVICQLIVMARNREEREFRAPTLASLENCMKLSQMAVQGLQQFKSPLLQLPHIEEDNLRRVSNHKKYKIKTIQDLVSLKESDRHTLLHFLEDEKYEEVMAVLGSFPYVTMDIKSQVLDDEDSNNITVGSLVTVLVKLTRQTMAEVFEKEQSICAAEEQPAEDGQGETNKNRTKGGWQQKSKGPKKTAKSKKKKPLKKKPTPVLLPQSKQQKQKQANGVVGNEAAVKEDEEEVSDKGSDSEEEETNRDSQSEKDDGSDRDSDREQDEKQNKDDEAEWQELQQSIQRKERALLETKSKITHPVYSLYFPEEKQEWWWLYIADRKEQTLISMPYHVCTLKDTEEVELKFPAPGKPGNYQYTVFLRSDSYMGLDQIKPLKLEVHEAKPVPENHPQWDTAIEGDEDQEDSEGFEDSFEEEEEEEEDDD
UniProt P20020: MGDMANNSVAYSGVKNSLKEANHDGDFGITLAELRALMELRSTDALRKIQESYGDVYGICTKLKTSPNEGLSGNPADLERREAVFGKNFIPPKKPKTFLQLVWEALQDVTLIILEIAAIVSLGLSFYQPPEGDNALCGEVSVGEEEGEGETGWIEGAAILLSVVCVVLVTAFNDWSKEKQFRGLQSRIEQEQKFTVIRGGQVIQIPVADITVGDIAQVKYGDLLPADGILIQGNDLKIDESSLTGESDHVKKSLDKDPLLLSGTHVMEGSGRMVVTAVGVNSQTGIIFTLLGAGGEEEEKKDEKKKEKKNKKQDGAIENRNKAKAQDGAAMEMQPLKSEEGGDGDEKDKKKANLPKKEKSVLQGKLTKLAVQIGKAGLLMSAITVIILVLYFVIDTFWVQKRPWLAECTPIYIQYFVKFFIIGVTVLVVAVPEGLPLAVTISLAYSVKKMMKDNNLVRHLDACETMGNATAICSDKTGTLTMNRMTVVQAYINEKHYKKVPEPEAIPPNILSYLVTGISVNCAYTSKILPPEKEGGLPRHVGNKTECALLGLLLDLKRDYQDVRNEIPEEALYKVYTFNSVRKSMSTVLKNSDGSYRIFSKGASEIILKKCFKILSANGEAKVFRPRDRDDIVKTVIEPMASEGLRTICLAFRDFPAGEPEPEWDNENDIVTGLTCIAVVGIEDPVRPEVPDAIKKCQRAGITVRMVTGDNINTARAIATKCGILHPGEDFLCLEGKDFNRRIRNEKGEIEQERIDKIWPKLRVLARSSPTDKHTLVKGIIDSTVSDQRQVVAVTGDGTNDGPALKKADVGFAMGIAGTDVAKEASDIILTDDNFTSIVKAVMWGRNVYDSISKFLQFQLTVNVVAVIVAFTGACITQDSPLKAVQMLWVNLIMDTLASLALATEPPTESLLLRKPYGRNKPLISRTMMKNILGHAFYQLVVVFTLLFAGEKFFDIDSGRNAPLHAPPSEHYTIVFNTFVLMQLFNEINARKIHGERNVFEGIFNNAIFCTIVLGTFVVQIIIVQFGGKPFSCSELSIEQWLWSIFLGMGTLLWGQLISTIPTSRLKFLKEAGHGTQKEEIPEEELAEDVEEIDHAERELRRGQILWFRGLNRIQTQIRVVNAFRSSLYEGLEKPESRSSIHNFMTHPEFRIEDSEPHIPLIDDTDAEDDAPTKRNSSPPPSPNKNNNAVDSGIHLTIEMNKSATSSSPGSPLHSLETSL

No constants are given. Whether binding was seen depends on the method and setting. Binding seen in cells or lysates may run through a third protein. Here binding means that the protein was enriched with, or labelled near, the bait; the list need not be complete.

What all share (test): proximity labelling
The target of one test is T1, LRRC59-BioID (UniProt Q96AG4).
T1 sequence: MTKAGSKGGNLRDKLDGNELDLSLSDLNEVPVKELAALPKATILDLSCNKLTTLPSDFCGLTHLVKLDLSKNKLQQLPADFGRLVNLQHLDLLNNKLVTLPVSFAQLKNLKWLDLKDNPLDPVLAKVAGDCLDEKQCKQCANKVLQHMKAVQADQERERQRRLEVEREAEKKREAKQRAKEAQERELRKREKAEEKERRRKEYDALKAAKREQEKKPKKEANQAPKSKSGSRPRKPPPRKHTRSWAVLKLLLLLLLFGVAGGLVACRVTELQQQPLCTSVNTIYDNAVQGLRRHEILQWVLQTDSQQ

The next test addresses T2, Ribophorin I-BioID (UniProt P04843).
T2 sequence: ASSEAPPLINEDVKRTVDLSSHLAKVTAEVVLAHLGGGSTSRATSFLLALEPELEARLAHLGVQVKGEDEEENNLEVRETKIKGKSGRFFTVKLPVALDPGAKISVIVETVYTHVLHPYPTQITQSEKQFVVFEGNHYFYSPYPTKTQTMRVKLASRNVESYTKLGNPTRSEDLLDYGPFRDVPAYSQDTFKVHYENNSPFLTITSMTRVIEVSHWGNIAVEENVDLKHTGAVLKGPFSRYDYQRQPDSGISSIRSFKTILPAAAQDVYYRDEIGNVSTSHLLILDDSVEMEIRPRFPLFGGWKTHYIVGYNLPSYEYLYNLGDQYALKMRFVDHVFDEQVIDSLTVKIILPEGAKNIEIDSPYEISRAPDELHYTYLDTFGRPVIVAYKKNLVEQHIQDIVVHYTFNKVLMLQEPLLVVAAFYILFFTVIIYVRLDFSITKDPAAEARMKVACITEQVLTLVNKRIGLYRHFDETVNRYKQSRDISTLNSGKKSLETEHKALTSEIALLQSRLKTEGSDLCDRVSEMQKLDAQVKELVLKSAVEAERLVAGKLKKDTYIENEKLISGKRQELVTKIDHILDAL

The target of the next test is Sec61β-BioID (UniProt P60468).

For CKAP4 (from UniProt Q07065 1-602), the binding result with LRRC59-BioID was “binds”. “IP3 receptor/calcium channel ITPR2 (from UniProt Q14571 1-2701)”: in the test with Ribophorin I-BioID, the binding result was “binds”. Consider “IP3 receptor/calcium channel ITPR3 (from UniProt Q14573 1-2671)”, for which, in the test with Sec61β-BioID, the binding entry is recorded as “binds”. On to LA2 (from UniProt P05387 1-115), for which the binding result in the test with LRRC59-BioID and in the test with Sec61β-BioID was “binds” each time. With “Sec63 homolog (from UniProt Q9UGP8 1-760)”, the binding entry with LRRC59-BioID and in the test with Sec61β-BioID was “binds” in each case.

For “calcium ATPase ATP2B1 (from UniProt P20020 1-1220)”, the binding result with Sec61β-BioID was “binds”.

B1: MTDH (AEG-1) (protein, UniProt Q86UE4 1-582)
chain: MAARSWQDELAQQAEEGSARLREMLSVGLGFLRTELGLDLGLEPKRYPGWVILVGTGALGLLLLFLLGYGWAAACAGARKKRRSPPRKREEAAAVPAAAPDDLALLKNLRSEEQKKKNRKKLSEKPKPNGRTVEVAEGEAVRTPQSVTAKQPPEIDKKNEKSKKNKKKSKSDAKAVQNSSRHDGKEVDEGAWETKISHREKRQQRKRDKVLTDSGSLDSTIPGIENTITVTTEQLTTASFPVGSKKNKGDSHLNVQVSNFKSGKGDSTLQVSSGLNENLTVNGGGWNEKSVKLSSQISAGEEKWNSVSPASAGKRKTEPSAWSQDTGDANTNGKDWGRSWSDRSIFSGIGSTAEPVSQSTTSDYQWDVSRNQPYIDDEWSGLNGLSSADPNSDWNAPAEEWGNWVDEERASLLKSQEPIPDDQKVSDDDKEKGEGALPTGKSKKKKKKKKKQGEDNSTAQDTEELEKEIREDLPVNTSKTRPKQEKAFSLKTISTSDPAEVLVKNSQPIKTLPPATSTEPSVILSKSDSDKSSSQVPPILQETDKSKSNTKQNSVPPSQTKSETSWESPKQIKKKKKARRET
Regarding B1, the binding result with LRRC59-BioID is recorded as “binds”.

B2: SSR1 (protein, UniProt P43307 19-286)
chain: VLFRGGPRGLLAVAQDLTEDEETVEDSIIEDEDDEAEVEEDEPTDLVEDKEEEDVSGEPEASPSADTTILFVKGEDFPANNIVKFLVGFTNKGTEDFIVESLDASFRYPQDYQFYIQNFTALPLNTVVPPQRQATFEYSFIPAEPMGGRPFGLVINLNYKDLNGNVFQDAVFNQTVTVIEREDGLDGETIFMYMFLAGLGLLVIVGLHQLLESRKRKRPIQKVEMGTSSQNDVDMSWIPQETLNQINKASPRRLPRKRAQKRSVGSDE
Consider B2, for which the binding result with Ribophorin I-BioID is listed as “binds”.

B3: STT3B (protein, UniProt Q8TCJ2 1-826)
chain: MAEPSAPESKHKSSLNSSPWSGLMALGNSRHGHHGPGAQCAHKAAGGAAPPKPAPAGLSGGLSQPAGWQSLLSFTILFLAWLAGFSSRLFAVIRFESIIHEFDPWFNYRSTHHLASHGFYEFLNWFDERAWYPLGRIVGGTVYPGLMITAGLIHWILNTLNITVHIRDVCVFLAPTFSGLTSISTFLLTRELWNQGAGLLAACFIAIVPGYISRSVAGSFDNEGIAIFALQFTYYLWVKSVKTGSVFWTMCCCLSYFYMVSAWGGYVFIINLIPLHVFVLLLMQRYSKRVYIAYSTFYIVGLILSMQIPFVGFQPIRTSEHMAAAGVFALLQAYAFLQYLRDRLTKQEFQTLFFLGVSLAAGAVFLSVIYLTYTGYIAPWSGRFYSLWDTGYAKIHIPIIASVSEHQPTTWVSFFFDLHILVCTFPAGLWFCIKNINDERVFVALYAISAVYFAGVMVRLMLTLTPVVCMLSAIAFSNVFEHYLGDDMKRENPPVEDSSDEDDKRNQGNLYDKAGKVRKHATEQEKTEEGLGPNIKSIVTMLMLMLLMMFAVHCTWVTSNAYSSPSVVLASYNHDGTRNILDDFREAYFWLRQNTDEHARVMSWWDYGYQIAGMANRTTLVDNNTWNNSHIALVGKAMSSNETAAYKIMRTLDVDYVLVIFGGVIGYSGDDINKFLWMVRIAEGEHPKDIRESDYFTPQGEFRVDKAGSPTLLNCLMYKMSYYRFGEMQLDFRTPPGFDRTRNAEIGNKDIKFKHLEEAFTSEHWLVRIYKVKAPDNRETLDHKPRVTNIFPKQKYLSKKTTKRKRGYIKNKLVFKKGKKISKKTV
For the molecule B3, the binding result with Ribophorin I-BioID is given as “binds”.

B4: SRP68 (68 kDa subunit of the signal recognition particle) (protein, UniProt Q9UHB9 1-627)
chain: MAAEKQVPGGGGGGGSGGGGGSGGGGSGGGRGAGGEENKENERPSAGSKANKEFGDSLSLEILQIIKESQQQHGLRHGDFQRYRGYCSRRQRRLRKTLNFKMGNRHKFTGKKVTEELLTDNRYLLLVLMDAERAWSYAMQLKQEANTEPRKRFHLLSRLRKAVKHAEELERLCESNRVDAKTKLEAQAYTAYLSGMLRFEHQEWKAAIEAFNKCKTIYEKLASAFTEEQAVLYNQRVEEISPNIRYCAYNIGDQSAINELMQMRLRSGGTEGLLAEKLEALITQTRAKQAATMSEVEWRGRTVPVKIDKVRIFLLGLADNEAAIVQAESEETKERLFESMLSECRDAIQVVREELKPDQKQRDYILEGEPGKVSNLQYLHSYLTYIKLSTAIKRNENMAKGLQRALLQQQPEDDSKRSPRPQDLIRLYDIILQNLVELLQLPGLEEDKAFQKEIGLKTLVFKAYRCFFIAQSYVLVKKWSEALVLYDRVLKYANEVNSDAGAFKNSLKDLPDVQELITQVRSEKCSLQAAAILDANDAHQTETSSSQVKDNKPLVERFETFCLDPSLVTKQANLVHFPPGFQPIPCKPLFFDLALNHVAFPPLEDKLEQKTKSGLTGYIKGIFGFRS
Consider B4, for which the binding result in the test with LRRC59-BioID was “binds”.

B5: RRBP1 (p180) (protein, UniProt Q9P2E9 1-1410)
chain: MDIYDTQTLGVVVFGGFMVVSAIGIFLVSTFSMKETSYEEALANQRKEMAKTHHQKVEKKKKEKTVEKKGKTKKKEEKPNGKIPDHDPAPNVTVLLREPVRAPAVAVAPTPVQPPIIVAPVATVPAMPQEKLASSPKDKKKKEKKVAKVEPAVSSVVNSIQVLTSKAAILETAPKEVPMVVVPPVGAKGNTPATGTTQGKKAEGTQNQSKKAEGAPNQGRKAEGTPNQGKKTEGTPNQGKKAEGTPNQGKKAEGTPNQGKKAEGAQNQGKKVDTTPNQGKKVEGAPTQGRKAEGAQNQAKKVEGAQNQGKKAEGAQNQGKKGEGAQNQGKKAEGAQNQGKKAEGAQNQGKKAEGAQNQGKKAEGAQNQGKKAEGAQNQGKKAEGAQNQGKKVEGAQNQGKKAEGAQNQGKKAEGAQNQGKKAEGAQNQGKKAEGAQNQGKKAEGAQNQGKKAEGAQNQGKKAEGAQNQGKKVEGAQNQGKKAEGAQNQGKKAEGAQNQGKKAEGAQNQGQKGEGAQNQGKKTEGAQGKKAERSPNQGKKGEGAPIQGKKADSVANQGTKVEGITNQGKKAEGSPSEGKKAEGSPNQGKKADAAANQGKKTESASVQGRNTDVAQSPEAPKQEAPAKKKSGSKKKGEPGPPDADGPLYLPYKTLVSTVGSMVFNEGEAQRLIEILSEKAGIIQDTWHKATQKGDPVAILKRQLEEKEKLLATEQEDAAVAKSKLRELNKEMAAEKAKAAAGEAKVKKQLVAREQEITAVQARMQASYREHVKEVQQLQGKIRTLQEQLENGPNTQLARLQQENSILRDALNQATSQVESKQNAELAKLRQELSKVSKELVEKSEAVRQDEQQRKALEAKAAAFEKQVLQLQASHRESEEALQKRLDEVSRELCHTQSSHASLRADAEKAQEQQQQMAELHSKLQSSEAEVRSKCEELSGLHGQLQEARAENSQLTERIRSIEALLEAGQARDAQDVQASQAEADQQQTRLKELESQVSGLEKEAIELREAVEQQKVKNNDLREKNWKAMEALATAEQACKEKLLSLTQAKEESEKQLCLIEAQTMEALLALLPELSVLAQQNYTEWLQDLKEKGPTLLKHPPAPAEPSSDLASKLREAEETQSTLQAECDQYRSILAETEGMLRDLQKSVEEEEQVWRAKVGAAEEELQKSRVTVKHLEEIVEKLKGELESSDQVREHTSHLEAELEKHMAAASAECQNYAKEVAGLRQLLLESQSQLDAAKSEAQKQSDELALVRQQLSEMKSHVEDGDIAGAPASSPEAPPAEQDPVQLKTQLEWTEAILEDEQTQRQKLTAEFEEAQTSACRLQEELEKLRTAGPLESSETEEASQLKERLEKEKKLTSDLGRAATRLQELLKTTQEQLAREKDTVKKLQEQLEKAEDGSSSKEGTSV
For B5, in the test with LRRC59-BioID, the binding entry is given as “binds”.

B6: STT3A (protein, UniProt P46977 1-705)
chain: MTKFGFLRLSYEKQDTLLKLLILSMAAVLSFSTRLFAVLRFESVIHEFDPYFNYRTTRFLAEEGFYKFHNWFDDRAWYPLGRIIGGTIYPGLMITSAAIYHVLHFFHITIDIRNVCVFLAPLFSSFTTIVTYHLTKELKDAGAGLLAAAMIAVVPGYISRSVAGSYDNEGIAIFCMLLTYYMWIKAVKTGSICWAAKCALAYFYMVSSWGGYVFLINLIPLHVLVLMLTGRFSHRIYVAYCTVYCLGTILSMQISFVGFQPVLSSEHMAAFGVFGLCQIHAFVDYLRSKLNPQQFEVLFRSVISLVGFVLLTVGALLMLTGKISPWTGRFYSLLDPSYAKNNIPIIASVSEHQPTTWSSYYFDLQLLVFMFPVGLYYCFSNLSDARIFIIMYGVTSMYFSAVMVRLMLVLAPVMCILSGIGVSQVLSTYMKNLDISRPDKKSKKQQDSTYPIKNEVASGMILVMAFFLITYTFHSTWVTSEAYSSPSIVLSARGGDGSRIIFDDFREAYYWLRHNTPEDAKVMSWWDYGYQITAMANRTILVDNNTWNNTHISRVGQAMASTEEKAYEIMRELDVSYVLVIFGGLTGYSSDDINKFLWMVRIGGSTDTGKHIKENDYYTPTGEFRVDREGSPVLLNCLMYKMCYYRFGQVYTEAKRPPGFDRVRNAEIGNKDFELDVLEEAYTTEHWLVRIYKVKDLDNRGLSRT
Turning to B6, the binding result with Ribophorin I-BioID is on record as “binds”.
